From the supplement of paper PMC10849652
The list shows a part of the results.

By UniProt entry, the sequences of proteins in these tests, tags left out. Where a name states a change or a piece, a line headed by the entry shows the natural chain unless it says otherwise.
UniProt P62745, whole entry, looked up: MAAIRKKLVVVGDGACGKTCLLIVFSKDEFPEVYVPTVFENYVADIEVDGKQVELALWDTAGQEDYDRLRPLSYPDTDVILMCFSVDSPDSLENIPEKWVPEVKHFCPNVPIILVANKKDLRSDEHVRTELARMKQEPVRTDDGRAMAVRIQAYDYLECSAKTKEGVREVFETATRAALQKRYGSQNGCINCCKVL
UniProt P22670: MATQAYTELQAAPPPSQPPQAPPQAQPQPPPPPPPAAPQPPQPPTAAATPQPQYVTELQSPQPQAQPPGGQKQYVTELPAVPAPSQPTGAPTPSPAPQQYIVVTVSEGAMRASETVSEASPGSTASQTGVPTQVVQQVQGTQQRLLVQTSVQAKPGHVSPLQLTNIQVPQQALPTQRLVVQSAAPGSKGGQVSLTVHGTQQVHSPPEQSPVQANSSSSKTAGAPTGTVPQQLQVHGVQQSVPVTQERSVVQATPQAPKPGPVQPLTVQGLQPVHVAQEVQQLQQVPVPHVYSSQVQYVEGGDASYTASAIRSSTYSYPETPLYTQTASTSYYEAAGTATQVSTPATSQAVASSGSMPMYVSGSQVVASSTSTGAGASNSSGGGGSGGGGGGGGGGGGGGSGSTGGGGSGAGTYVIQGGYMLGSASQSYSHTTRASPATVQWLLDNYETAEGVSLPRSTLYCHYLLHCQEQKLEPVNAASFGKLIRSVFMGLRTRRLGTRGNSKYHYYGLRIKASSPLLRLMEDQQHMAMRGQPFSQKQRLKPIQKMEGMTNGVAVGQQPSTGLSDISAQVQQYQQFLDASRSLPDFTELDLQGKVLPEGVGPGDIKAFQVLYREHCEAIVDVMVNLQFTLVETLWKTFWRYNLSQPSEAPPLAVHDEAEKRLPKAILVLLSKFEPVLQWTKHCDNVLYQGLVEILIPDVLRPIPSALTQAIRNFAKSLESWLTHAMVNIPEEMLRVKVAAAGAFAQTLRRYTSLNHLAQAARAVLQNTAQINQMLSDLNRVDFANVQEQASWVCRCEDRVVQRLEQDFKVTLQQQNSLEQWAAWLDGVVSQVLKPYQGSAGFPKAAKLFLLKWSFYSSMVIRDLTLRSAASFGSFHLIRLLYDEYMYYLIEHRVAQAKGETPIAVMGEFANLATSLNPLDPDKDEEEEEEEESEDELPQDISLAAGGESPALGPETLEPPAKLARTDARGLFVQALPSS
UniProt Q9Y3B8: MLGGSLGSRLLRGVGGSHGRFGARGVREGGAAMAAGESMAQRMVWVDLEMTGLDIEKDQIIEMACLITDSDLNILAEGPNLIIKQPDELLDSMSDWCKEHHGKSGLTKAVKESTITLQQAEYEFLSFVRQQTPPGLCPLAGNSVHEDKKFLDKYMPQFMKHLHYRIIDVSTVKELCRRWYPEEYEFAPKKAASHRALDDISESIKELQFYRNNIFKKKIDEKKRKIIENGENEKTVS
UniProt Q00765: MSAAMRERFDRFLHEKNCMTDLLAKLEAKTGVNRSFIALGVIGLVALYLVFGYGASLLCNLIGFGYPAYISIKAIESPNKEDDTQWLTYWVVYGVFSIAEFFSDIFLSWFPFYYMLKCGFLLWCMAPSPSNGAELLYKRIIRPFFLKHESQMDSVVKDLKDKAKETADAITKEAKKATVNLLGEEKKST
UniProt Q4ADV7: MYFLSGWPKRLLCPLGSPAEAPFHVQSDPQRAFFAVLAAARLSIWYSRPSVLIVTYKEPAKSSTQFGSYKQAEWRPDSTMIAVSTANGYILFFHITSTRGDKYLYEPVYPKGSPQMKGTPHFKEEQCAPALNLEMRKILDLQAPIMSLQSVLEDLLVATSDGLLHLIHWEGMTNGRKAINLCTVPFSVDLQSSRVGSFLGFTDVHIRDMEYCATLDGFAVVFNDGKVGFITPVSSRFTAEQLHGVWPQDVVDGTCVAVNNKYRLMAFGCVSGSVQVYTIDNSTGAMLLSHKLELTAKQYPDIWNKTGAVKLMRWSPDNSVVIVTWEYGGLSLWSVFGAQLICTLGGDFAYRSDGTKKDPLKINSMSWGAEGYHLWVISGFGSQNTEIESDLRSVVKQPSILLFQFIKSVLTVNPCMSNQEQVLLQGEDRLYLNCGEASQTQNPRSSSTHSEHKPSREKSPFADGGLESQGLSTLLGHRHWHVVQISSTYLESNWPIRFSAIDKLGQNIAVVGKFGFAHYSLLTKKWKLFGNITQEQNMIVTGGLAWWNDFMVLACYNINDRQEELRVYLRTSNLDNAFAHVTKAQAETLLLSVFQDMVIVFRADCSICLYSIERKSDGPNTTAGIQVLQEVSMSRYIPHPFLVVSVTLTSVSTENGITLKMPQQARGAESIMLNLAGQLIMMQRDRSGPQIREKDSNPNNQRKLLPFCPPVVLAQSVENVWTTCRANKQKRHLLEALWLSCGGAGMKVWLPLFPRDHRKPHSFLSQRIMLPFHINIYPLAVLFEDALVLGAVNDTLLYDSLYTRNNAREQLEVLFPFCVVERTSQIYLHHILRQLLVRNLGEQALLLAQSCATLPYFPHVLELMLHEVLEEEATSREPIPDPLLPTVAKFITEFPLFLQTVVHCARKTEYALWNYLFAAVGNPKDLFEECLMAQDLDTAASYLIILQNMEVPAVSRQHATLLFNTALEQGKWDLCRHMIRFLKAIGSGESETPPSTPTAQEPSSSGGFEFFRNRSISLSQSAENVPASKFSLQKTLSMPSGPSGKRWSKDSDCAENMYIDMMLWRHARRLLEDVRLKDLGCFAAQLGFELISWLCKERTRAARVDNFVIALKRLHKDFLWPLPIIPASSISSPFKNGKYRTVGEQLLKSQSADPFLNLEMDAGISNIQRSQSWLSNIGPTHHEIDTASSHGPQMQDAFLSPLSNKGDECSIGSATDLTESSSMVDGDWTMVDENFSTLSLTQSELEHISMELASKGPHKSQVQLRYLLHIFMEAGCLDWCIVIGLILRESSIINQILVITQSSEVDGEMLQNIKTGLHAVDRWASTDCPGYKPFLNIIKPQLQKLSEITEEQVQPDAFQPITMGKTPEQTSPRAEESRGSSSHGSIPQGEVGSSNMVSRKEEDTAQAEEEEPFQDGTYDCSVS
UniProt Q8TDP1: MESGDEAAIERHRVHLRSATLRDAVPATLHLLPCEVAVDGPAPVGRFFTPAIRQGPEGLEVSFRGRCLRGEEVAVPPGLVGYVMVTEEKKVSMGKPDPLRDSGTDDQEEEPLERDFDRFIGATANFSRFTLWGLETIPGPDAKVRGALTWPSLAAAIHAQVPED
UniProt Q9H920: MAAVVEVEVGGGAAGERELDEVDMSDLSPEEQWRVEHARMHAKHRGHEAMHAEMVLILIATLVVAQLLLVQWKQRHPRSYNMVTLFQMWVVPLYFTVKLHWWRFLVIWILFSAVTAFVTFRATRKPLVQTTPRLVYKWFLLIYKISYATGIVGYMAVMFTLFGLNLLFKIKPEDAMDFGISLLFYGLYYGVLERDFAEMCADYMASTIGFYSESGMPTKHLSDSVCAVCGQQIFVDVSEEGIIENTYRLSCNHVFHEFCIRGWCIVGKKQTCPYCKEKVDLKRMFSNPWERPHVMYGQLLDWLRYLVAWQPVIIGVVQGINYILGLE
UniProt Q96HR9: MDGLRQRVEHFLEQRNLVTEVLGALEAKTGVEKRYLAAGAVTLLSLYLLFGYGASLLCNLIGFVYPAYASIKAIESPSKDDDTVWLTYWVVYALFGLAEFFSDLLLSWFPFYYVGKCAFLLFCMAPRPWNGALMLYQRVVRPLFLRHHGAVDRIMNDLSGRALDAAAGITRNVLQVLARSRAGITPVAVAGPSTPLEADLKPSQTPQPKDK
UniProt Q6NUQ1: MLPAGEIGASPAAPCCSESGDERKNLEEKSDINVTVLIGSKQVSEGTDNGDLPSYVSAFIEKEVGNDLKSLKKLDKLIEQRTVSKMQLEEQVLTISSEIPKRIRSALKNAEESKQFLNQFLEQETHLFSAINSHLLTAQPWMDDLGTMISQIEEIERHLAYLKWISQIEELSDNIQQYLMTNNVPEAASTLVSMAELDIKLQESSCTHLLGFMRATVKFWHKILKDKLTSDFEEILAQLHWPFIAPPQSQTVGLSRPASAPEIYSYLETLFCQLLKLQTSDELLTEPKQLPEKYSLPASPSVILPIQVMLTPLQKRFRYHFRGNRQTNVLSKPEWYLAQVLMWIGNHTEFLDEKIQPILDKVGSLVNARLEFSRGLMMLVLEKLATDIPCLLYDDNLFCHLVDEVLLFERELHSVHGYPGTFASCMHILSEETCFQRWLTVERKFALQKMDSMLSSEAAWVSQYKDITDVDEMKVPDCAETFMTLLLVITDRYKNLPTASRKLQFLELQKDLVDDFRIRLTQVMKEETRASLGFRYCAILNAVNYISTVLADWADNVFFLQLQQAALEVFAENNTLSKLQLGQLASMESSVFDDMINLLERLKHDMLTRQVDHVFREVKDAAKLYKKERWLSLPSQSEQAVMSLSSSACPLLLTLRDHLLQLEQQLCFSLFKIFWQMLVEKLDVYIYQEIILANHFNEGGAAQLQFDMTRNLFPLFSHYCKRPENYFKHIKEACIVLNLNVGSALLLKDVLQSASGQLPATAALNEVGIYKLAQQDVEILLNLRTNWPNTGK
UniProt Q9Y225: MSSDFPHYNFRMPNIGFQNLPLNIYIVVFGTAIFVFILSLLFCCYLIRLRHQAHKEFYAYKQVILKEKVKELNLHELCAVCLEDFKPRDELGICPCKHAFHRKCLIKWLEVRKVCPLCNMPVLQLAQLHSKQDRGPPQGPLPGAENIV
UniProt Q02094: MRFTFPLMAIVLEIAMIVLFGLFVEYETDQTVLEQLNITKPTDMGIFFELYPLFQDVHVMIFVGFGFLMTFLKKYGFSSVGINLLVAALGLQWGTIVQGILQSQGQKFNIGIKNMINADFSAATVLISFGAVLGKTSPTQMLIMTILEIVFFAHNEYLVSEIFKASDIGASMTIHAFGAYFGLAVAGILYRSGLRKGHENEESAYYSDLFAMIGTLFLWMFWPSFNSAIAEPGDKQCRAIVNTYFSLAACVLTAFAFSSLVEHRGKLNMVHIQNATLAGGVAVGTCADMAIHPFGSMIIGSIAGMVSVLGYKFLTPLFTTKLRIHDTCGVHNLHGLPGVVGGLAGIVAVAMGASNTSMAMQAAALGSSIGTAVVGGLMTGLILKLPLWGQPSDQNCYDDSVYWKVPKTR
UniProt Q8IXI1, whole entry, looked up: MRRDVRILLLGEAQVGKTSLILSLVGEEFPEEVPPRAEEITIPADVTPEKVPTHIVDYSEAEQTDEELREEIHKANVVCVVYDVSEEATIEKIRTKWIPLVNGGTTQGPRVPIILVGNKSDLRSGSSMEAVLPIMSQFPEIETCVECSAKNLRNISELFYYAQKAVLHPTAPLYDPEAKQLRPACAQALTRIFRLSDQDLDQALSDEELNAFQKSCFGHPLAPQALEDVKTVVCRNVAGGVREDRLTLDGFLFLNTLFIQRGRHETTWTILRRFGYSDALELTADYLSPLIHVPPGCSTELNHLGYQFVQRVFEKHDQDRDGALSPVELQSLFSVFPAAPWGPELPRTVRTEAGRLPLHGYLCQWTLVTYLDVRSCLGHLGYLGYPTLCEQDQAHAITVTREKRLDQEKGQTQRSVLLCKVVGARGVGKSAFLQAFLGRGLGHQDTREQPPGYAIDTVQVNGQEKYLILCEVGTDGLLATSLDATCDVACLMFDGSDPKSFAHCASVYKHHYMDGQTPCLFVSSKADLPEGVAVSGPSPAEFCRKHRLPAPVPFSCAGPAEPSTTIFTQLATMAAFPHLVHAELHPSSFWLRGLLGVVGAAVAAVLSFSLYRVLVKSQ
UniProt Q9H0Z9: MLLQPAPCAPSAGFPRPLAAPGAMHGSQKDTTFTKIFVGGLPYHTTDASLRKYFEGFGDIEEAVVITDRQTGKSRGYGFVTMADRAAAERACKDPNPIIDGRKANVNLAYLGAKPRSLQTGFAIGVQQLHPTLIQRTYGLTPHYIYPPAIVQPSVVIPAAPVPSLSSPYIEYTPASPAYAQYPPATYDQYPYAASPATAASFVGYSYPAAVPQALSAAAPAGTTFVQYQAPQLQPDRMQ
UniProt Q6JBY9, whole entry, looked up: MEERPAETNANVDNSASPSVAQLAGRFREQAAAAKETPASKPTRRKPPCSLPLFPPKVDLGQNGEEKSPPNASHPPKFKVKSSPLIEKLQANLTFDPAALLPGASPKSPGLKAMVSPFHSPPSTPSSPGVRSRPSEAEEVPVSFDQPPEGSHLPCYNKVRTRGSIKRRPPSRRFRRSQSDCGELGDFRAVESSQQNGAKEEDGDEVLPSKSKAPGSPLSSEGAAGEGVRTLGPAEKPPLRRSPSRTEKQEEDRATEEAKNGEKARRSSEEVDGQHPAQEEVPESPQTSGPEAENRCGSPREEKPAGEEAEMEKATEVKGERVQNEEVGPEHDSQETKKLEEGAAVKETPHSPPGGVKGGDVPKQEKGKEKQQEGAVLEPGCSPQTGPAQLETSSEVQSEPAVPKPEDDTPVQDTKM
UniProt Q9Y508: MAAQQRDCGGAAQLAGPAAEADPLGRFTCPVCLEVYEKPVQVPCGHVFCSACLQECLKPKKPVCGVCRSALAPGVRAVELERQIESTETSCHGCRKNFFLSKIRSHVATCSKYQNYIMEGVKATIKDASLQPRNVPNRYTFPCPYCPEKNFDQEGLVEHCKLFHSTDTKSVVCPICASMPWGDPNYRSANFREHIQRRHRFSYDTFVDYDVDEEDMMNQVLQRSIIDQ

Legend:
Experiment in all cases: log2 fold change, soluble protein after heating vs DMSO (PISA); higher = thermal stabilisation; K562 cells, 10 uM, 30 min; active = over 0.2 and 3.5 SD of the protein, either way, in both replicates (recomputed)
[1] = compound: CC[C@@H]1C(=O)N(C)c2cnc(Nc3ccc(C(=O)NC4CCN(C)CC4)cc3OC)nc2N1C1CCCC1
Outline: (§1)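 K562 cells (2×10^6 cells/mL) were treated with 10 μM compound for 30 min, and aliquots were heated for 3 min over 48°C-58°C. Pooled aliquots were extracted in PBS with 0.5% NP-40 at 4°C, and the supernatant after 21,000xg for 90 min was measured by TMTpro 16plex LC-MS/MS with channel sums equalised. Reported thermal stability, relative to control samples and from duplicates, is a log2 fold change.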

volasertib = compound: CC[C@@H]1C(=O)N(C)c2cnc(Nc3ccc(C(=O)N[C@H]4CC[C@H](N5CCN(CC6CC6)CC5)CC4)cc3OC)nc2N1C(C)C [volasertib]
Outline: as §1

[2] = compound: CC[C@H](C)N1C=C(C2=C(C=C(C=C21)C3=CN=C(C=C3)N4CCNCC4)C(=O)NCC5=C(C=C(NC5=O)C)C)C
Outline: as §1

epoxomicin = compound: CC[C@H](C)[C@@H](C(=O)N[C@@H]([C@@H](C)O)C(=O)N[C@@H](CC(C)C)C(=O)[C@]1(CO1)C)NC(=O)[C@H]([C@@H](C)CC)N(C)C(=O)C [epoxomicin]
Outline: as §1

[3] = compound: CCn1c(C(=O)N(C2CC2)C2CC2)cc2c3c(ncn3C)c(Nc3cc(C)n(C)n3)nc21
Outline: as §1

[4] = compound: CCn1cc(-c2ccnc3[nH]c(-c4cccc(CN(C)C)c4)cc23)c(-c2ccc(NC(=O)N(C)C)cc2)n1
Outline: as §1

[5] = compound: CN(C)CC(=O)Nc1ccc2[nH]c(=O)c3ccccc3c2c1
Outline: as §1

rosiglitazone = compound: CN(CCOC1=CC=C(C=C1)C[C@H]2C(=O)NC(=O)S2)C3=CC=CC=N3 (racemic) [rosiglitazone]
Outline: as §1

[6] = compound: CN1C2=C(C3=C1C(=O)N(N=C3)CC4=CC(=CC=C4)N)SC(=C2)S(=O)C
Outline: as §1

[7] = compound: CN1CCC(CNc2ccc3ncc(-c4cccc(OC(F)(F)F)c4)n3n2)CC1
Outline: as §1

Measured: log2 fold change

RBX1 (UniProt P62877)
inactive: [1] 0.042 | volasertib 0.076 | [2] -0.007 | epoxomicin -0.058 | [3] 0.103 | [4] -0.079 | [5] -0.058 | rosiglitazone 0.025 | [6] -0.115 | [7] -0.024

RHOB (UniProt P62745)
inactive: [1] 0.087 | volasertib 0.075 | [2] -0.029 | epoxomicin 0.088 | [3] -0.07 | [4] -0.151 | [5] -0.019 | rosiglitazone 0.03 | [6] 0.059 | [7] 0.108

RFX1 (UniProt P22670)
inactive: [1] 0.033 | volasertib -0.07 | [2] 0.03 | epoxomicin 0.069 | [3] -0.054 | [4] -0.045 | [5] 0.024 | rosiglitazone -0.004 | [6] -0.025 | [7] 0.087

RHOT1 isoform 3 (UniProt Q8IXI2)
inactive: [1] -0.027 | volasertib -0.106 | [2] -0.015 | epoxomicin 0.03 | [3] -0.037 | [4] 0.016 | [5] -0.004 | rosiglitazone 0.038 | [6] -0.016 | [7] -0.159

RBPJ (UniProt Q06330)
inactive: [1] 0.05 | volasertib 0.039 | [2] -0.007 | epoxomicin 0.022 | [3] 0.019 | [4] -0.014 | [5] -0.007 | rosiglitazone -0.006 | [6] -0.048 | [7] 0.023

RENBP (UniProt P51606)
inactive: [1] 0.084 | volasertib 0.151 | [2] -0.01 | epoxomicin -0.042 | [3] -0.009 | [4] -0.104 | [5] -0.019 | rosiglitazone 0.037 | [6] -0.044 | [7] 0

RMDN3 (UniProt Q96TC7)
inactive: [1] -0.029 | volasertib -0.09 | [2] 0.04 | epoxomicin -0.031 | [3] 0.011 | [4] -0.052 | [5] -0.005 | rosiglitazone 0.033 | [6] -0.021 | [7] 0.008

REXO2 (UniProt Q9Y3B8)
inactive: [1] 0.018 | volasertib 0.067 | [2] -0.028 | epoxomicin -0.004 | [3] 0 | [4] 0.013 | [5] -0.005 | rosiglitazone -0.001 | [6] -0.067 | [7] -0.026

RCC1L (UniProt Q96I51)
inactive: [1] 0.031 | volasertib 0.021 | [2] -0.008 | epoxomicin -0.008 | [3] -0.002 | [4] -0.025 | [5] -0.028 | rosiglitazone -0.011 | [6] -0.023 | [7] 0.008

RCN2 isoform 2 (UniProt Q14257)
inactive: [1] 0 | volasertib -0.106 | [2] -0.004 | epoxomicin 0.015 | [3] -0.011 | [4] 0.029 | [5] -0.01 | rosiglitazone 0.023 | [6] -0.009 | [7] 0.084

RDH14 (UniProt Q9HBH5)
inactive: [1] -0.007 | volasertib -0.039 | [2] -0.017 | epoxomicin -0.052 | [3] 0.049 | [4] -0.051 | [5] -0.02 | rosiglitazone 0.082 | [6] -0.147 | [7] 0.222

REEP5 (UniProt Q00765)
inactive: [1] 0.066 | volasertib 0.051 | [2] -0.049 | epoxomicin -0.021 | [3] 0.006 | [4] -0.046 | [5] -0.073 | rosiglitazone -0.024 | [6] -0.07 | [7] 0.071

RIC1 (UniProt Q4ADV7)
inactive: [1] -0.067 | volasertib -0.209 | [2] 0.165 | epoxomicin 0 | [3] -0.078 | [4] 0.061 | [5] 0.151 | rosiglitazone -0.032 | [6] -0.307 | [7] -0.001

RNASEH2C (UniProt Q8TDP1)
inactive: [1] -0.04 | volasertib -0.102 | [2] 0.049 | epoxomicin 0.049 | [3] -0.062 | [4] -0.066 | [5] 0.048 | rosiglitazone -0.033 | [6] -0.081 | [7] -0.253

RNF121 (UniProt Q9H920)
inactive: [1] 0.057 | volasertib -0.124 | [2] -0.131 | epoxomicin -0.046 | [3] 0.059 | [4] -0.058 | [5] 0.04 | rosiglitazone 0.04 | [6] -0.099 | [7] 0.17

REEP6 (UniProt Q96HR9)
inactive: [1] 0.055 | volasertib 0.061 | [2] -0.09 | epoxomicin 0.121 | [3] 0.007 | [4] -0.014 | [5] 0.002 | rosiglitazone 0.006 | [6] 0.025 | [7] 0.072

RINT1 (UniProt Q6NUQ1)
inactive: [1] 0.155 | volasertib -0.122 | [2] 0.105 | epoxomicin -0.294 | [3] -0.134 | [4] 0 | [5] 0.044 | rosiglitazone 0.065 | [6] 0.286 | [7] 0.071

RNF213 isoform 4 (UniProt Q63HN8)
inactive: [1] 0.009 | volasertib 0.057 | [2] -0.061 | epoxomicin -0.111 | [3] -0.071 | [4] 0.086 | [5] 0.213 | rosiglitazone 0.031 | [6] 0.038 | [7] 0.02

Two records picked at random from the list so far, as already listed:
RBX1 (UniProt P62877)
inactive: [1] 0.042 | volasertib 0.076 | [2] -0.007 | epoxomicin -0.058 | [3] 0.103 | [4] -0.079 | [5] -0.058 | rosiglitazone 0.025 | [6] -0.115 | [7] -0.024

RHOB (UniProt P62745)
inactive: [1] 0.087 | volasertib 0.075 | [2] -0.029 | epoxomicin 0.088 | [3] -0.07 | [4] -0.151 | [5] -0.019 | rosiglitazone 0.03 | [6] 0.059 | [7] 0.108

Remaining list, next part

RNF11 (UniProt Q9Y3C5)
inactive: [1] -0.032

RNF214 (UniProt Q8ND24)
inactive: [1] 0.028 | volasertib -0.117 | [2] 0.08 | epoxomicin -0.013 | [3] -0.012 | [4] -0.045 | [5] 0.01 | rosiglitazone 0.069 | [6] 0.026 | [7] -0.053

RNF149 (UniProt Q8NC42)
inactive: [1] 0.025 | volasertib 0.028 | [2] 0.008 | epoxomicin 0.001 | [3] 0.035 | [4] 0.087 | [5] -0.04 | rosiglitazone 0.027 | [6] 0.109 | [7] 0.017

RNF24 isoform 2 (UniProt Q9Y225)
inactive: [1] 0.166 | volasertib 0.26 | [2] -0.145 | epoxomicin 0.041 | [3] -0.035 | [4] 0.214 | [5] 0.28 | rosiglitazone -0.04 | [6] 0.109 | [7] 0.085

RHAG (UniProt Q02094)
inactive: [1] -0.051 | volasertib -0.295 | [2] -0.038 | epoxomicin -0.022 | [3] 0.04 | [4] 0.074 | [5] 0.064 | rosiglitazone 0.046 | [6] 0 | [7] 0.099

RHOT2 (UniProt Q8IXI1)
inactive: [1] 0.007 | volasertib -0.19 | [2] 0.027 | epoxomicin 0.014 | [3] -0.01 | [4] 0.014 | [5] 0.018 | rosiglitazone 0.064 | [6] 0.011 | [7] 0.129

RDX (UniProt P35241)
inactive: [1] 0.04 | volasertib 0.044 | [2] 0.015 | epoxomicin 0.171 | [3] 0.025 | [4] -0.005 | [5] -0.006 | rosiglitazone 0.037 | [6] -0.039 | [7] 0.013

RFT1 (UniProt Q96AA3)
inactive: [1] 0.098 | volasertib 0.061 | [2] -0.064 | epoxomicin -0.039 | [3] 0.006 | [4] 0.011 | [5] 0.008 | rosiglitazone 0.002 | [6] 0.028 | [7] 0.094

RCN1 (UniProt Q15293)
inactive: [1] 0.015 | volasertib 0.001 | [2] -0.019 | epoxomicin -0.001 | [3] 0.004 | [4] 0.085 | [5] -0.01 | rosiglitazone 0.021 | [6] -0.033 | [7] 0.02

RBM38 (UniProt Q9H0Z9)
inactive: [1] 0.027 | volasertib 0.016 | [2] 0.062 | epoxomicin 0.173 | [3] 0.034 | [4] -0.103 | [5] -0.018 | rosiglitazone 0.073 | [6] -0.039 | [7] 0.062

RCSD1 (UniProt Q6JBY9)
inactive: [1] -0.009 | volasertib 0.055 | [2] -0.075 | epoxomicin 0.006 | [3] -0.028 | [4] 0.086 | [5] -0.067 | rosiglitazone -0.017 | [6] -0.051 | [7] -0.045

RNF114 (UniProt Q9Y508)
inactive: [1] 0.004 | volasertib -0.002 | [2] 0.001 | epoxomicin 0.028 | [3] -0.014 | [4] -0.027 | [5] 0.005 | rosiglitazone 0.002 | [6] -0.081 | [7] -0.058
